Binding data for 1 molecule are collected here from patent publication US20180105585A1.

This assay has as its target biotinylated-insulin. Briefly: SPR (BIAcore T-100), antibody amine-coupled to CM3 chip, analyte at 400 nM. On the technique in general: In SPR one partner is held on a chip, and binding of the other changes the refractive index at the surface.

These are yes or no findings as the source states them, for the method shown.

B1: Abet0144-GL IgG1-TM (antibody, V domains shown)
VH: EVQLLESGGGLVQPGGSLRLSCAASGFTFSVYTMWWVRQAPGKGLEWVSVIGSSGGTTVYADSVKGRFTISRDNSKNTLYLQMNSLRAEDTAVYYCAREWMDHSRPYYYYGMDVWGQGTLVTVSS
VL: SYELTQPPSVSVSPGQTASITCSGHNLEDKFASWYQQKPGQSPVLVIYRDDKRPSGIPERFSASNSGHTATLTISGTQAMDEADYYCQAQDSTTRVFGGGTKLTVL
Turning to B1, the binding result is “no binding (tested: 400 nM)”.
